Reference: patent US20090105234A1, “EP4 Receptor Agonist, Compositions and Methods Thereof” (priority 2005, published 2009)
At least one compound was matched to its structure with a doubt left.

System: EP4 mRNA in RCT-1 cells
Experiment: EP4 mRNA levels (Northern blot) in RCT-1 cells
Format: cell-based, rat

Q: How did the “effect on EP4 mRNA levels” value turn out when CC1=C(/C=C/C(C)=C/C=C/C(C)=C/C(=O)O)C(C)(C)CCC1 [retinoic acid] was run?
A: reduces the levels of EP4 mRNA
